Publication doi:10.1101/2022.08.09.503273
These are yes or no findings as the source states them, for the method shown. For part of these data: In cells and extracts the contact can be indirect. Some binding calls cover weakened binding; strength is not graded here. Values belong to the substance of their own block, whether it stands above or below them.

Tests used:
[1] = target: PTBP1-WT protein, Flag- or HA-tagged (human) (UniProt P26599); assay: co-IP
[2] = target: PTBP1-C23S protein, Flag- or HA-tagged (human) (UniProt P26599); assay: co-IP
[3] = target: purified PTBP1-WT protein (human) (UniProt P26599); assay: SDS-PAGE of purified protein

- binding [1]: binds
Substance: PTBP1-WT protein, Flag- or HA-tagged (from UniProt P26599 1-557)

- binding [2]: no binding
Substance: PTBP1-C23S protein, Flag- or HA-tagged (from UniProt P26599 1-557)

- binding [3]: binds
Substance: purified PTBP1-WT protein (from UniProt P26599 1-557)
